From US8252774B2, “5-azaindole bisphosphonates” (Isis Innovation Ltd., priority 2008, dated 2012)

Assay: HAP affinity: chromatographic profiling on hydroxyapatite column (FPLC)
Type: physicochemical
Conditions: phosphate buffer gradient 1 mM up to 1000 mM, pH 6.8, determined in triplicate, longer retention = higher mineral affinity
Procedure: Mineral affinity for hydroxyapatite was evaluated by chromatographic profiling of the novel bisphosphonate compounds. Hydroxyapatite (HAP) ceramic spheres (20 μm diameter, BioRad) were packed in a 0.66×6.5 cm glass column (Omnifit®). The HAP columns were attached to a Waters 650E Advanced Protein Purification System (FPLC) (Millipore) in a running buffer of 1 mM KPO3 at pH 6.8. Each compound was prepared in 1 mM KPO3 buffer at pH 6.8 and 400 μmoles were injected into the FPLC system. The bisphosphonate compounds were eluted in a gradient of phosphate buffer, concentration increasing from 1 mM up to 1000 mM and detected by a Waters 484 UV absorbance detector (Millipore) at their optimum wavelength. […] Longer retention times (minutes) correspond with higher affinity to the HAP sphere and, correspondingly, higher mineral affinity.

For NCCCC(O)(P(=O)(O)O)P(=O)(O)O [Alendronate], which “Retention time” value is on record?
The value was 17.5 min.
